Data source: PubChem BioAssay AID1259254 (NCATS, 2017)
Test: 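Gene knock-downs that lead to re-replication, shown by excess G2 DNA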 (primary screen). Cells: human HCT116 colorectal cancer cells. Reagents: single siRNA against human genes. Timing: 3 days. Detection: 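Imaged Hoechst DNA stain sorts each cell into a cycle phase by DNA amount; per plate, G2 fraction set to 0% for non-targeting and 100% for GMNN siRNA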. Scale: G2 robust z-score: higher = more G2 cells, more excess DNA replication. Rule for the call: 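An siRNA counts as active if its G2 robust z-score lies at least 5 MADs above the screen median; here such calls match roughly 38% of GMNN control or more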.
This is an unselected part of about 59,000 reagents tested. About 1,550 of all reagents (2.6%) count as active. 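G2 share is only a proxy for re-replication; each gene was hit by three separate siRNAs, and active genes were retested.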 Entries without a mark were called inactive. Reagents against one gene are numbered here. Not all columns of the deposit are shown. Not stated in the record: the amount of reagent.

Against PCED1B #1, the entry reads G2 robust z-score -0.581.
After knock-down of PCED1B #2, the record shows G2 robust z-score -0.474.
For PCED1B #3, the entry reads G2 robust z-score 0.269.
Against NAT2 #1, the values are G2 robust z-score -0.0232.
After knock-down of NAT2 #2, the record shows G2 robust z-score -0.992.
NAT2 #3 gave G2 robust z-score -0.499.
After knock-down of HOXB7 #1 the results were G2 robust z-score 2.01.
Knock-down of HOXB7 #2 gave: G2 robust z-score -0.971.
HOXB7 #3 scored G2 robust z-score -1.04.
Depletion of ANP32E #1 gave: G2 robust z-score 0.835.
After knock-down of ANP32E #2, the record shows G2 robust z-score -0.802.
Silencing of ANP32E #3 gave: G2 robust z-score 3.05.
Against ABCA17P #1, the values are G2 robust z-score 0.976.
Silencing of ABCA17P #2 came out at: G2 robust z-score 0.511.
With knock-down of ABCA17P #3, the record shows G2 robust z-score -0.376.
SHISAL1 #1 gave G2 robust z-score -0.69.
SHISAL1 #2 gave G2 robust z-score 1.94.
SHISAL1 #3 showed G2 robust z-score 1.09.
